Laboratory results reported in article PMC8213729.
Results are given in words; binding and its absence hold for the method and conditions named. In cells and extracts the contact can be indirect. Some results given as binding are weak or reduced against the parent protein; the word gives no strength.

Amino acid sequences for entries named in this document (tags omitted).
UniProt P08621: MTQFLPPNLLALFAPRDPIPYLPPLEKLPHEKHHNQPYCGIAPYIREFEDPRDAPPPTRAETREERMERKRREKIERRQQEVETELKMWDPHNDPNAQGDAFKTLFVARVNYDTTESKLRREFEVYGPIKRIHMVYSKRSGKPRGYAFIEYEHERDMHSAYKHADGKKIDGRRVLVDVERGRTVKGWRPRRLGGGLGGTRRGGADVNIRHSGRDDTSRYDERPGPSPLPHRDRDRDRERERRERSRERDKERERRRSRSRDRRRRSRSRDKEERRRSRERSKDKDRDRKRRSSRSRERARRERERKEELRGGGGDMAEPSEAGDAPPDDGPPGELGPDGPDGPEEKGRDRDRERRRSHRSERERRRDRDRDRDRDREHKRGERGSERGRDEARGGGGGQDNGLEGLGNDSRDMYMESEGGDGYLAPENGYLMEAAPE

Target: U1 small nuclear ribonucleoprotein 70 kDa (human (endogenous in A549)) (UniProt P08621)
Experiment: co-IP; A549 cell lysate (20 mM Tris-HCl pH 8.6, 100 mM NaCl, 20 mM KCl, 1.5 mM MgCl2, 0.5% NP-40); 3 mg total protein rotated with antibodies at 4 °C overnight, captured on Protein A/G agarose, immunoblotting

binding: binds
B1: heterogeneous ribonucleoprotein M (hnRNPM) (protein, UniProt P52272 1-730)
chain: MAAGVEAAAEVAATEIKMEEESGAPGVPSGNGAPGPKGEGERPAQNEKRKEKNIKRGGNRFEPYANPTKRYRAFITNIPFDVKWQSLKDLVKEKVGEVTYVELLMDAEGKSRGCAVVEFKMEESMKKAAEVLNKHSLSGRPLKVKEDPDGEHARRAMQKVMATTGGMGMGPGGPGMITIPPSILNNPNIPNEIIHALQAGRLGSTVFVANLDYKVGWKKLKEVFSMAGVVVRADILEDKDGKSRGIGTVTFEQSIEAVQAISMFNGQLLFDRPMHVKMDERALPKGDFFPPERPQQLPHGLGGIGMGLGPGGQPIDANHLNKGIGMGNIGPAGMGMEGIGFGINKMGGMEGPFGGGMENMGRFGSGMNMGRINEILSNALKRGEIIAKQGGGGGGGSVPGIERMGPGIDRLGGAGMERMGAGLGHGMDRVGSEIERMGLVMDRMGSVERMGSGIERMGPLGLDHMASSIERMGQTMERIGSGVERMGAGMGFGLERMAAPIDRVGQTIERMGSGVERMGPAIERMGLSMERMVPAGMGAGLERMGPVMDRMATGLERMGANNLERMGLERMGANSLERMGLERMGANSLERMGPAMGPALGAGIERMGLAMGGGGGASFDRAIEMERGNFGGSFAGSFGGAGGHAPGVARKACQIFVRNLPFDFTWKMLKDKFNECGHVLYADIKMENGKSKGCGVVKFESPEVAERACRMMNGMKLSGREIDVRIDRNA
